In the DeepSol protein solubility set:

Experiment: soluble on expression in E. coli; label from the status in PepcDB or PDB records

Sequence	soluble on expression in E. coli
MQTEISWHSINWAKANREVKRLQVRIAKAVKEGRWGKVKALQWLLTHSFYGKALAVKRVTDNSGSKTPGVDGITWSTQEQKTQAIKSLRRRGYKPQPLRRVYIPKANGKQRPLGIPTMRDRAMQALYALALEPVAETTADRNSYGFRRGRSTADAAGQCFITLARADSATYVPDADISGCFDNISHEWLLANIPLDKEILRKWLKSGFVWKQQLFPTHAGTPQGGVISPILANMALDGMEELLNEALQKSQSPSHLEHHHHHH	soluble
MSKATSACSQKKTSLLDPSPKKSSVIETTTKKTSGIESKLLPNELPSTGTTGTSGVKNGASSPKTSPAKTTTTTTTVVTQKVSNQPTAPISTLPPRKPTAQKSRELSPPKAKKSPSPSRTGSGDSGSRKESSASRKDSSKTEKLVKDLENVKLEKGDSRESATLPTPKQYPASDDEEDTKERKSLRFGTTTEWQSDNLEEFYREHEKFPNAEAVKKFGQMYSMTELIAETWLETRRQQTYQKYVEKGLQTDPSVIQFYCESLKIAEGLRLENPSIQTKSFFSLNGVNALEQKKEEEEKMQPVISVSSNKVFISPKKEQKCQLTIKNDGEVNVVYQISIMNAANYVMSPICAILLPKEELTLNITRKPGKLLEEEFFRIDYGVAPEGIIDARDSSDRAEFTNREIIEVVEIDEKEMKIVR	not soluble
MSLAAIRTPRDRWPHHHRNEVTEIIPLDGFLDGLALYDELDFAELDDLDLGDDCVFDYEAQLLAAPELDDLDDADDLAPEWLVAPTVVLTPEVTPVSRRVGQHRKQPIGAARGRLLISAMAAGAAAAAAHTAIQQSETPRTETVLTAHASALNEGSGSNPPRGVQVIAAQPAASAAVHNAEFARGVAFAEERAEREARLQRPLYVMPTKGIFTSSFGYRWGVLHAGIDLANAIGTPIYAVSDGVVIDAGPTAGYGMWVKLLHADGTVTLYGHVNTTLVSVGERVMAGDQIATMGSRGFSTGPHLHFEVLLGGTERVDPVPWLAKRGLSVGNYTGEGHHHHHH	not soluble
MSLEDWTRPLGGRRALVTGAARGIGAAIAETLARDGADVLLLDVPQASKDLDALAARLGGKALPLDICASDAATQLLAALPDGIDIVVHNAGITRDKTLVNMTPEYWDAVLAVNLKAPQVLTQALYDNGALGENARITLLASVSGIAGNRGQANYAASKAGLIGLAQAWAPRLAERGGSINAIAPGFIETHMTAAMPMGLREAGRRLSSLGQGGSPQDVAEAIAWLSQPGSGSVNGQVLRVCGQALMGAEGHHHHHH	not soluble
MTRSPGENLSVAAHRATLTDRYAAWREQGFDANRCPVRNVLDHLGSKWSTLLLIALAEKPMRFNALLRDVPDISKRMLTQTLRDLERDGLVARQVFPTKPPSVEYRLSASGESVLAPLTALVAWAEQHFPEIERARARFDSAARDGEPQVPGDSARPESPLALAPLPVRG	not soluble
MTSLIDSRVLYESDFSIFNGRLCSLRISAVTNNEEGIEKIRITSPSDATILLDTSISSDECSSFIEILKEISTARKSDPSILGPRIETIHSENEYPFQMVIEPINREKHSGKTLPLSHPPPQERCDYVLQLYAKEKVQHQSQKTKVEELTKQLQQARVDYNTLKQRCDFQEKEIALLRQITSSTGSGNRKRSRDDSETTHIKKRRCGCGDDGESCGSDCDGMDDDEEDETDTDVQMFRAATAQLQMAAAGRNTQNGTSSHQKLKRKIPKSQSVSIGNARGMVTLPNLLQPKLEESDDGYNYSGRSSTQSNIDKLELAVRRESIVDIGRAVIDGIKNKTLTENQLEEFCKTTHRPNISIFRFYKDSEECTKEENEAIMMGQTVMMKMLDPQEKAIAGVQASISSLSASFANQTKLGLIKHQRLTRSYVTLPVDYFPSIDLTEAYNSSNLFGADATMQLTNFYQTVLKNVLNPVYMIWIYTYRPSTVRTCDKHFVEFPQNVITTLFDMTTDIVGLYLPEYLLDGEIDPMDPFLLTIDAVDPFEEIMRRRTERKLANTTFNHALGRAMKNLRSYHYDPTRGILLNCSEKKNCGMHLQWEQMRKFREYCRKENVACDDATPEEMIAFNLRASKVHYEDYSPGNVSSEEGNKNEMPNFMEQLEKFSSVIVKGPNLPSTSTMSTMHIKMENGKEQSGPLLLRNSPNDQNQKVVGVVQYVICQLCPEEEQKSMDLSNQKQMEEHFLNKHVDKEKKKCEACPSDQFQPHNIGQHYRLHTNSVFACEHCGKRGRRNFLKTHIRTHTGERPYRCDTCSKSFTDASTLRRHGLVHTGEKKYQCPVCGRAIARKDNVKAHIRSHGIQI	not soluble
